Measurements reported in patent US12428442B2, “Compounds, compositions and methods for synthesis” (WAVE LIFE SCIENCES LTD., priority 2017, dated 2025).
Several values for one entry are separate records, joined by “and”; a condition that tells them apart may be missing. Equal values may be shown once.

Test: Use of chiral auxiliaries / phosphoramidite monomers in oligonucleotide synthesis (SOCICS or DPSE cycle), analysed by RP-HPLC/UPLC (Table 7)
Conditions: dC dimer; cycle DPSE; activator 0.45M ETT

Row | SMILES | Dimer Conv. % | Dimer HPLC Area % dC | Dimer HPLC Area % dCC (Rp) | Dimer HPLC Area % dCC (Sp) | Dimer Rp/Sp | Dimer d.r.
1 | CC1(C)CN[C@H]([C@H](O)C[Si](C)(c2ccccc2)c2ccccc2)C1 [WV-CA-111] | 74.8% and 80.4% | 11.40% and 8.51% | 1.16% and 1.31% | 87.45% and 90.18% | Sp | 98.69 and 98.57

Same assay, conditions: dC dimer; cycle DPSE; activator 0.5M CMIMT

Row | SMILES | Dimer Conv. % | Dimer HPLC Area % dC | Dimer HPLC Area % dCC (PO) | Dimer HPLC Area % dCC (Rp) | Dimer HPLC Area % dCC (Sp) | Dimer Rp/Sp | Dimer d.r.
2 | C[Si](C[C@@H](O)[C@@H]1CCCCN1)(c1ccccc1)c1ccccc1 [WV-CA-012] | 68.6% | 13.80% | 0.25% | 57.75% | 28.20% | Rp | 67.19
3 | CC1(C)CN[C@H]([C@H](O)C[Si](C)(c2ccccc2)c2ccccc2)C1 [WV-CA-111] | 75.9% and 88.5% | 10.80% and 4.73% |  | 0.37% and 0.40% | 88.83% and 94.87% | Sp | 99.59 and 99.58
4 | CC(C)(C)c1ccc2c(c1)C([C@@H](O)[C@@H]1CCCN1)c1cc(C(C)(C)C)ccc1-2 [WV-CA-110] | 97.8% and 93.2% | 0.84% and 2.69% |  | 1.89% and 2.19% | 97.27% and 95.13% | Sp | 98.09 and 97.75
5 | C[Si]1(C[C@@H](O)[C@@H]2CCCN2)CCCC1 [WV-CA-051] | 68.1% | 14.04% | 1.19% | 2.27% | 82.50% | Sp | 97.32
6 | CC(C)[Si](C[C@@H](O)[C@@H]1CCCN1)(C(C)C)C(C)C [WV-CA-050] | 97.9% and 95.8% | 0.74% and 1.50% | 6.30% and 3.27% | 1.56% and 1.55% | 91.40% and 93.57% | Sp | 98.32 and 98.37

Same assay, conditions: dC dimer; cycle SOSICS; activator CMPT

Row | SMILES | Dimer Conv. % | Dimer HPLC Area % dC | Dimer HPLC Area % dCC (PO) | Dimer HPLC Area % dCC (Rp) | Dimer HPLC Area % dCC (Sp) | Dimer Rp/Sp | Dimer d.r.
7 | O[C@H](Cc1ccccc1)[C@@H]1CCCN1 [WV-CA-122, (R)-2-phenyl-1-((S)-pyrrolidin-2-yl)ethan-1-ol] | 83.1% | 6.04% | 0.00% | 0.77% | 57.72% | Sp | 98.68
8 | COc1ccc([C@@](C)(O)[C@@H]2CCCN2)c(OC)c1 [WV-CA-083] | 44.1% | 32.23% | 1.63% | 0.00% | 48.58% | Sp | 100.00
9 | CNC1(C)C2CCCCC(C2)C1O (stereo not shown) [WV-CA-169] | 85.4% | 7.8884% | 0.3918% | 2.1565% | 88.6194% | Sp | 97.62
10 | CN[C@@H](C1CCCCC1)[C@@](C)(O)c1ccccc1 [WV-CA-008-S, (1S, 2S)-1-cyclohexyl-1-(methylamino)-2-phenylpropan-2-ol] | 4.0% | 83.31% | 0.55% | 5.97% | 0.28% | Rp | 95.45
11 | CN[C@@H]1CCCC[C@@]1(C)O [WV-CA-216] | 95.6% | 2.24% | 1.78% | 4.56% | 89.54% | Sp | 95.15
12 | COc1ccc([C@@H](O)[C@@H]2CCCN2)cc1 [WV-CA-206] | 9.9% | 77.99% | 1.25% | 0.80% | 14.83% | Sp | 94.86
13 | C[C@@](O)(Cc1ccccc1)[C@@H]1CCCN1 [WV-CA-123, (R)-1-phenyl-2-((S)-pyrrolidin-2-yl)propan-2-ol] | 78.2% | 12.17% | 0.63% | 1.06% | 84.45% | Sp | 98.76
14 | Cc1ccc([C@@](C)(O)[C@@H]2CCCN2)cc1 [WV-CA-080] | 72.5% | 15.65% | 1.46% | 0.31% | 79.53% | Sp | 99.61
15 | OC1(C[C@@H]2CCCN2)CCCC1 [WV-CA-063-S] | 3.9% | 92.50% | 0.00% | 5.02% | 2.48% | Rp | 66.93
16 | CN[C@H]1CCCCCC[C@@H]1O [WV-CA-223] | 32.5% | 41.23% | 2.37% | 2.30% | 34.47% | Sp | 93.75
17 | CNC1(C)C2CCC(C2)C1(C)O (stereo not shown) [WV-CA-168] | 89.5% | 5.5686% | 0.4474% | 1.017% | 92.0584% | Sp | 98.91
18 | C[C@](O)(c1ccccc1)[C@@H]1CCN1 [WV-CA-118S, (S)-1-((S)-azetidin-2-yl)-1-phenylethan-1-ol] | 82.5% | 9.61% | 1.27% | 7.04% | 81.05% | Sp | 92.01
19 | OC1([C@@H]2CCCN2)CCc2ccccc21 (stereo partly shown) [WV-CA-074-M] | 74.6% | 13.90% | 2.63% | 1.90% | 76.00% | Sp | 97.56
20 | COc1ccc([C@@](C)(O)[C@@H]2CCCN2)cc1 [WV-CA-124] | 60.1% | 23.81% | 2.14% | 1.36% | 67.25% | Sp | 98.02
21 | OC1([C@@H]2CCN2)CCCC1 [WV-CA-065-S] | 89.7% | 5.52% | 2.99% | 2.78% | 88.72% | Sp | 96.96
22 | C[C@@](O)(c1ccccc1)[C@@H]1CCN1 [WV-CA-118, (R)-1-((S)-azetidin-2-yl)-1-phenylethan-1-ol] | 87.9% | 6.40% | 3.13% | 0.77% | 87.49% | Sp | 99.13
23 | C[C@](O)(C1CCCCC1)[C@H]1CCCN1 [WV-CA-005-D] | 80.3% | 10.7919% | 0.5767% | 85.9478% | 0.441% | Rp | 99.49
24 | OC1([C@H]2N[C@@H]3CC[C@H]2C3)CCCC1 [WV-CA-202] | 75.9% | 13.69% | 2.10% | 0.83% | 82.10% | Sp | 98.99
25 | CN[C@@H]1CCCC[C@]1(O)c1ccccc1 [WV-CA-024] | 92.3% | 3.95% | 1.02% | 4.69% | 88.00% | Sp | 94.94
26 | CN[C@H]1CCC[C@]1(O)c1ccccc1 [WV-CA-031] | 0.0% | 100.00% | 0.00% | 0.00% | 0.00% | Sp | 
27 | CN[C@H]1CCCC[C@@]1(O)C1CCCCC1 [WV-CA-047] | 61.2% | 23.43% | 0.83% | 7.32% | 64.80% | Sp | 89.86
28 | CC(C)C(O)(C(C)C)[C@@H]1CCCN1 [WV-CA-069-S] | 19.7% | 65.28% | 1.78% | 7.01% | 22.77% | Sp | 76.46
29 | CN[C@H]1CCCC[C@]1(O)C1CCCCC1 [WV-CA-061] | 35.4% | 45.8889% | 0.5981% | 46.7151% | 2.2635% | Rp | 95.38
30 | CCC(O)(CC)[C@@H]1CCCN1 [WV-CA-068-S] | 81.6% | 10.08% | 0.57% | 3.01% | 84.89% | Sp | 96.58

Same assay, conditions: no dimer cycle, activator or HPLC data printed

Row | SMILES | Dimer Rp/Sp
31 | CC(C)(C)[Si](C)(C)Oc1ccccc1C[C@@H](O)[C@@H]1CCCN1 [WV-CA-076] | Sp
32 | CN[C@H]1CCCC[C@@]1(C)O [WV-CA-070] | Sp
